Experimental data: patent US20210347823A1 (Massachusetts Institute of Technology, priority 2018, published 2021)
Where no end group is shown, it is not given here.

What was measured:
[1] = peptide made by a vendor (peptide synthesis; Rink Amide resin, 0.52 mmol g^-1; HBTU); conditions: whole synthesis, 220 nm
[2] = general procedure: Fmoc solid-phase peptide synthesis; Rink Amide resin, 0.52 mmol g^-1; HBTU; conditions: whole synthesis, 220 nm
[3] = test system: human red blood cells; assay: Hemolytic activity assay; format: cell-based; conditions: human erythrocytes vs average MIC
Protocol: FIGS. 6A-6B. Hemolysis and resistance to protease-mediated degradation of engineered peptides. FIG. 6A. Schematic of experimental design and hemolytic assay results of Pol-CP—NH2 and derivatives, where hemolytic activity was evaluated by incubating the peptides (0.1-100 μmol L^−1) with human red blood cells in PBS at room temperature for 1 h. Experiments were performed in triplicate, (*p<0.05). FIG. 6B. Resistance to degradation of Pol-CP—NH2 and analogs exposed to fetal bovine serum (FBS) proteases for 6 h. Experiments were done in triplicate.
Hemolytic Activity Assays. Human erythrocytes were collected and washed three times by centrifugation at 300×g with PBS (pH 7.4). After the last centrifugation, the cells were resuspended in PBS pH 7.4. Aliquots at a concentration of 0.1 to 100 ? mol L^−1 of the peptides were added to the 96-well microplate, where in each well containing 50 ? L of a suspension of erythrocytes to 0.4% in a phosphate saline buffer (10 mmol L^−1 Na2HPO4, 1.8 mmol L^−1 […], pH 7.4, 137 mmol L^−1 NaCl and 2.7 mmol L^−1KCl). After that, the samples were incubated at room temperature for 1 h. Hemolysis was determined by reading absorbance at 405 nm of each well in a bed of plates. 1% SDS in PBS solution was used as positive control (Shalel S. et al., J. Colloid Interface Sci. 252, 66-76 (2002); Love L. J. Cell. Comp. Physiol. 36, 133-148 (1950)) and as negative control was used PBS only. MHC was defined as the maximal non-hemolytic concentration.

Substance	final HPLC purity [1] [%]	final HPLC purity [2] [%]	other results
ALGTILGLLKSL-NH2	95		
GLGTILGLLKSL-NH2		99	
H-ILGTILGLLKSL-NH2		99	
H-ILGTILGLLKSL-NH2 [WT, ILGTILGLLKSL-NH2, reference compound]			SI (Selectivity Index = HC50/MICaverage) [3]: 3.1
H-ILGTILKLLKSL-NH2		99	
H-ILGTILKLLKSL-NH2 [Peptide 16, ILGTILKLLKSL-NH2]			SI (Selectivity Index = HC50/MICaverage) [3]: 9.2
IAGTILGLLKSL-NH2	96		
ILATILGLLKSL-NH2	96		
ILETKLGLLKSE-NH2		99	
ILGAILGLLKSL-NH2	93		
ILGKILGLLKSL-NH2		98	
ILGTALGLLKSL-NH2	94		
ILGTIAGLLKSL-NH2 (C-terminal amide)	93		
ILGTILALLKSL-NH2	92		
ILGTILGALKSL-NH2	93		
ILGTILGLAKSL-NH2	90		
ILGTILGLFKSL-NH2		99	
ILGTILGLFKSL-NH2 [Peptide 17, ILGTILGLFKSL-NH2]			SI (Selectivity Index = HC50/MICaverage) [3]: 2.5
ILGTILGLLASL-NH2	92		
ILGTILGLLKAL-NH2	95		
ILGTILGLLKSA-NH2	92		
ILGTILGLLKSL-NH2		99	
ILGTKLGLLKSL-NH2		99	
ILGTLLGLKKSL-NH2		99	
